Laboratory results from patent publication US7288573B2, “Method of repelling insects” (priority 2001, dated 2007).
Some results were stated once for a whole list of compounds, not compound by compound.

System: Culex quinquefasciatus
Assay: One-minute biting counts on treated forearm (Example 7)
Assay type: in vivo
Conditions: 5% and 20% 2-undecanone, 20% 2-tridecanone formulations

Structure (SMILES): CCCCCCCCCCCC(C)=O [2-tridecanone]
- repellency (0 hour biting count): > 95%
- repellency (6 hours post-treatment): 60-74%
